Experiments:
[1] = tested on: primary human hepatocytes (PHH) 3D spheroids
PHH 2D sandwich cultures = conditions: cited from earlier work

COc1cc2c(cc1OC)C(=O)C(CC1CCN(Cc3ccccc3)CC1)C2 (centres unmarked) [Donepezil]
Chemically defined spheroids (this study) 20x [1]: Negative
2Dsw (Xu 2008) 100x (PHH 2D sandwich cultures): Negative
